{"source": "PubChem BioAssay AID248", "about": "(DTP/NCI, 2004)", "system": "L1210 leukemia ip in BDF1 mice, survival T/C", "assay": "NCI In Vivo Anticancer Drug Screen. Data for tumor model L1210 Leukemia (intraperitoneal) in B6D2F1 (BDF1) mice", "conditions": "T/C endpoint: mean survival time, higher T/C = longer survival", "note": "The list shows only some results of the screen, not a fair sample: it is rich in T/C values a quarter to a half above the control, in often repeated tests (any T/C) and in doses without a T/C. Other doses and runs of a compound stand elsewhere. T/C: endpoint of the treated group in % of that of the vehicle group. Some entries give survivors of the animals treated and no T/C: the source holds a T/C of zero for them, seemingly a mark for toxic or unscored doses. Some doses without a T/C left all or most animals alive at the check, yet need not have been tolerated: survival well below the control is almost never listed, so the zero probably covers shortened survival too. Counts of survivors are from the toxicity check (mostly the fifth day) where no day follows; animals may have died later. Schedules are NCI's codes, taken here to give the interval after Q, in days (D) or hours (H), and the number of doses after X. Some schedule codes hold Z or #, which are not explained here. Some doses were run more than once; the values are given in rising order. For survival time, this PubChem deposit counts one and a half times the control or more as active, and values a quarter to a half above the control carry no call in these data; other NCI protocols may use other cut-offs. Some T/C values are followed by the survivors on the day toxicity was checked, most often the fifth; without a count, all were alive then.", "data": [{"smiles": "CCOc1ccc(/C=N/N=C(N)N)cc1OCC", "values": [{"measurement": "survivor count", "setting": "dose: 500.0 mg/kg/injection, schedule: Q01DX Z (oral), vehicle: saline", "value": "0 of 6 and 1 of 7"}, {"measurement": "survivor count", "setting": "dose: 1000.0 mg/kg/injection, schedule: Q01DX Z (oral), vehicle: saline", "value": "0 of 7"}, {"measurement": "survivor count", "setting": "dose: 2000.0 mg/kg/injection, schedule: Q01DX Z (oral), vehicle: saline", "value": "0 of 7"}, {"measurement": "survivor count", "setting": "dose: 4000.0 mg/kg/injection, schedule: Q01DX Z (oral), vehicle: saline", "value": "0 of 7"}]}, {"smiles": "Cc1no[n+]([O-])c1[N+](=O)[O-]", "values": [{"measurement": "survivor count", "setting": "dose: 40.0 mg/kg/injection, schedule: Q04DX003 (ip), vehicle: saline", "value": "2 of 6"}, {"measurement": "survivor count", "setting": "dose: 80.0 mg/kg/injection, schedule: Q04DX003 (ip), vehicle: saline", "value": "0 of 6"}, {"measurement": "survivor count", "setting": "dose: 100.0 mg/kg/injection, schedule: Q04DX003 (ip), vehicle: Klucel (hydroxypropylcellulose) (HPC)", "value": "0 of 6"}, {"measurement": "survivor count", "setting": "dose: 200.0 mg/kg/injection, schedule: Q04DX003 (ip), vehicle: Klucel (hydroxypropylcellulose) (HPC)", "value": "0 of 6"}, {"measurement": "survivor count", "setting": "dose: 400.0 mg/kg/injection, schedule: Q04DX003 (ip), vehicle: Klucel (hydroxypropylcellulose) (HPC)", "value": "0 of 6"}]}, {"smiles": "O=C(O)c1ccccc1S(=O)O", "values": [{"measurement": "survivor count", "setting": "dose: 100.0 mg/kg/injection, schedule: Q04DX002 (ip), vehicle: Klucel (hydroxypropylcellulose) (HPC)", "value": "3 of 3"}]}, {"smiles": "O=NN(CCCl)C(=O)N[C@H]1CCCC[C@@H]1Cl", "values": [{"measurement": "survivor count", "setting": "dose: 1.0 mg/kg/injection, schedule: Q## X024 (ip), vehicle: other", "value": "6 of 10"}, {"measurement": "T/C", "setting": "dose: 3.35 mg/kg/injection, schedule: Q01DX015 (ip), vehicle: other", "value": "128 % of control"}, {"measurement": "T/C", "setting": "dose: 5.1 mg/kg/injection, schedule: Q01DX015 (ip), vehicle: other", "value": "146 % of control"}, {"measurement": "T/C", "setting": "dose: 6.0 mg/kg/injection, schedule: Q01DX001 (ip), vehicle: other", "value": "139 % of control"}, {"measurement": "survivor count", "setting": "dose: 6.0 mg/kg/injection, schedule: Q## X008 (ip), vehicle: other", "value": "3 of 10"}, {"measurement": "survivor count", "setting": "dose: 6.0 mg/kg/injection, schedule: Q## X024 (ip), vehicle: other", "value": "5 of 10"}, {"measurement": "T/C", "setting": "dose: 6.0 mg/kg/injection, schedule: Q## X024 (oral), vehicle: other", "value": "126 % of control"}, {"measurement": "T/C", "setting": "dose: 10.0 mg/kg/injection, schedule: Q## X032 (ip), vehicle: other", "value": "132 % of control [9 of 10 alive]"}, {"measurement": "T/C", "setting": "dose: 10.4 mg/kg/injection, schedule: Q## X032 (ip), vehicle: other", "value": "137 % of control"}, {"measurement": "T/C", "setting": "dose: 12.0 mg/kg/injection, schedule: Q01DX001 (ip), vehicle: carboxymethylcellulose (CMC)", "value": "133 % of control"}, {"measurement": "T/C", "setting": "dose: 12.0 mg/kg/injection, schedule: Q01DX001 (oral), vehicle: other", "value": "129 % of control"}, {"measurement": "T/C", "setting": "dose: 12.0 mg/kg/injection, schedule: Q01DX001 (sc), vehicle: other", "value": "140 % of control"}, {"measurement": "survivor count", "setting": "dose: 12.0 mg/kg/injection, schedule: Q## X008 (ip), vehicle: other", "value": "6 of 10"}, {"measurement": "survivor count", "setting": "dose: 12.0 mg/kg/injection, schedule: Q## X024 (ip), vehicle: other", "value": "2 of 10"}, {"measurement": "T/C", "setting": "dose: 12.0 mg/kg/injection, schedule: Q## X024 (oral), vehicle: other", "value": "135 % of control"}, {"measurement": "T/C", "setting": "dose: 13.0 mg/kg/injection, schedule: Q01DX001 (ip), vehicle: carboxymethylcellulose (CMC)", "value": "141 % of control"}, {"measurement": "T/C", "setting": "dose: 15.25 mg/kg/injection, schedule: Q01DX001 (ip), vehicle: other", "value": "148 % of control"}, {"measurement": "T/C", "setting": "dose: 16.0 mg/kg/injection, schedule: Q## X032 (ip), vehicle: other", "value": "142 % of control"}, {"measurement": "T/C", "setting": "dose: 21.6 mg/kg/injection, schedule: Q01DX001 (ip), vehicle: carboxymethylcellulose (CMC)", "value": "136 % of control"}, {"measurement": "survivor count", "setting": "dose: 24.0 mg/kg/injection, schedule: Q## X008 (ip), vehicle: other", "value": "4 of 10"}, {"measurement": "survivor count", "setting": "dose: 24.0 mg/kg/injection, schedule: Q## X024 (ip), vehicle: other", "value": "2 of 10"}, {"measurement": "T/C", "setting": "dose: 24.0 mg/kg/injection, schedule: Q## X032 (ip), vehicle: other", "value": "148 % of control"}, {"measurement": "T/C", "setting": "dose: 30.0 mg/kg/injection, schedule: Q01DX009 (oral), vehicle: other", "value": "132 % of control"}, {"measurement": "T/C", "setting": "dose: 36.0 mg/kg/injection, schedule: Q## X032 (ip), vehicle: other", "value": "146 % of control"}, {"measurement": "survivor count", "setting": "dose: 48.0 mg/kg/injection, schedule: Q## X008 (ip), vehicle: other", "value": "3 of 10"}, {"measurement": "T/C", "setting": "dose: 54.0 mg/kg/injection, schedule: Q## X032 (ip), vehicle: other", "value": "146 % of control"}, {"measurement": "survivor count", "setting": "dose: 60.0 mg/kg/injection, schedule: Q01DX005 (ip), vehicle: other", "value": "10 of 10"}, {"measurement": "survivor count", "setting": "dose: 60.0 mg/kg/injection, schedule: Q01DX009 (ip), vehicle: other", "value": "9 of 10"}, {"measurement": "survivor count", "setting": "dose: 60.0 mg/kg/injection, schedule: Q01DX009 (oral), vehicle: other", "value": "10 of 10"}, {"measurement": "T/C", "setting": "dose: 60.0 mg/kg/injection, schedule: Q## X003 (oral), vehicle: other", "value": "142 % of control"}, {"measurement": "T/C", "setting": "dose: 61.0 mg/kg/injection, schedule: Q01DX001 (ip), vehicle: other, evaluated on day 46", "value": "478 and 519 % of control [8 of 9 alive]"}, {"measurement": "T/C", "setting": "dose: 61.0 mg/kg/injection, schedule: Q01DX001 (ip), vehicle: other, evaluated on day 99", "value": "383 % of control"}, {"measurement": "T/C", "setting": "dose: 61.0 mg/kg/injection, schedule: Q01DX001 (ip), vehicle: other, run until all animals had died", "value": "219 and 273 % of control"}, {"measurement": "T/C", "setting": "dose: 96.0 mg/kg/injection, schedule: Q01DX001 (oral), vehicle: other", "value": "142 % of control"}, {"measurement": "survivor count", "setting": "dose: 96.0 mg/kg/injection, schedule: Q## X008 (ip), vehicle: other", "value": "1 of 10"}, {"measurement": "survivor count", "setting": "dose: 120.0 mg/kg/injection, schedule: Q01DX005 (ip), vehicle: other", "value": "2 of 10"}, {"measurement": "survivor count", "setting": "dose: 120.0 mg/kg/injection, schedule: Q01DX005 (oral), vehicle: other", "value": "8 of 10"}, {"measurement": "survivor count", "setting": "dose: 120.0 mg/kg/injection, schedule: Q01DX009 (ip), vehicle: other", "value": "2 of 10"}, {"measurement": "survivor count", "setting": "dose: 120.0 mg/kg/injection, schedule: Q01DX009 (oral), vehicle: other", "value": "7 of 10"}, {"measurement": "survivor count", "setting": "dose: 120.0 mg/kg/injection, schedule: Q01DX009 (sc), vehicle: other", "value": "9 of 10"}, {"measurement": "survivor count", "setting": "dose: 120.0 mg/kg/injection, schedule: Q## X003 (ip), vehicle: other", "value": "4 of 10"}, {"measurement": "T/C", "setting": "dose: 137.0 mg/kg/injection, schedule: Q01DX001 (ip), vehicle: other", "value": "147 % of control"}, {"measurement": "T/C", "setting": "dose: 137.2 mg/kg/injection, schedule: Q01DX001 (ip), vehicle: other", "value": "135 % of control"}, {"measurement": "survivor count", "setting": "dose: 187.0 mg/kg/injection, schedule: Q01DX001 (ip), vehicle: carboxymethylcellulose (CMC)", "value": "6 of 6"}, {"measurement": "survivor count", "setting": "dose: 240.0 mg/kg/injection, schedule: Q01DX005 (ip), vehicle: other", "value": "0 of 10"}, {"measurement": "survivor count", "setting": "dose: 240.0 mg/kg/injection, schedule: Q01DX005 (oral), vehicle: other", "value": "0 of 10"}, {"measurement": "survivor count", "setting": "dose: 240.0 mg/kg/injection, schedule: Q01DX009 (ip), vehicle: other", "value": "0 of 10"}, {"measurement": "survivor count", "setting": "dose: 240.0 mg/kg/injection, schedule: Q01DX009 (oral), vehicle: other", "value": "0 of 10"}, {"measurement": "survivor count", "setting": "dose: 240.0 mg/kg/injection, schedule: Q01DX009 (sc), vehicle: other", "value": "3 of 10"}, {"measurement": "survivor count", "setting": "dose: 240.0 mg/kg/injection, schedule: Q## X003 (ip), vehicle: other", "value": "0 of 10"}, {"measurement": "survivor count", "setting": "dose: 240.0 mg/kg/injection, schedule: Q## X003 (oral), vehicle: other", "value": "4 of 10"}, {"measurement": "survivor count", "setting": "dose: 375.0 mg/kg/injection, schedule: Q01DX001 (ip), vehicle: carboxymethylcellulose (CMC)", "value": "2 of 6"}, {"measurement": "survivor count", "setting": "dose: 480.0 mg/kg/injection, schedule: Q01DX005 (oral), vehicle: other", "value": "0 of 10"}, {"measurement": "survivor count", "setting": "dose: 480.0 mg/kg/injection, schedule: Q01DX009 (oral), vehicle: other", "value": "0 of 10"}, {"measurement": "survivor count", "setting": "dose: 480.0 mg/kg/injection, schedule: Q## X003 (oral), vehicle: other", "value": "0 of 10"}]}, {"smiles": "COc1ccc(CC2NCCc3cc(OC)c(OC)cc32)cc1OC", "note": "(stereo not drawn)", "values": [{"measurement": "survivor count", "setting": "dose: 150.0 mg/kg/injection, schedule: Q01DX001 (ip), vehicle: saline", "value": "1 of 6"}, {"measurement": "survivor count", "setting": "dose: 300.0 mg/kg/injection, schedule: Q01DX001 (ip), vehicle: saline", "value": "0 of 6"}]}, {"smiles": "Nc1cc(N2CCCC2)nc(-c2ccccc2)n1", "values": [{"measurement": "survivor count", "setting": "dose: 200.0 mg/kg/injection, schedule: Q01DX009 (ip), vehicle: saline with Tween-80", "value": "0 of 3"}]}]}
